Measured data: PubChem BioAssay AID1259286 (Sanger Institute, 2017)

- Aim: 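Kinome knock-downs lethal on their own or synergistic with anchor drugs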 (primary screen)
- Cell system: NCI-H630 human colorectal cancer cells
- Knock-down reagent: siRNA pool against human genes
- Challenge: anchor drugs BYL719 at 1 µM, cetuximab at 5 µg/ml or trametinib at 10 nM, or DMSO vehicle alone; exposure time not given
- Measurement: 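Viability relative to non-targeting pool wells, averaged over replicates, with robust z-score for knock-down alone and a synergy score for each anchor drug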
- Reading the numbers: viability z-score, knock-down alone: higher = more viable cells, weaker knock-down effect; viability vs control, knock-down alone: higher = more viable cells
- Rule for the call: 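a gene is called essential when its knock-down-alone viability robust z-score is below -3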
- Calls: active = essential when knocked down alone; inactive = not essential alone
Here is an unselected part of 794 deposited reagents. Of all reagents, 17 (2.1%) are marked active. 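Calls use knock-down alone only; synergy above 0.15 marked separately; viability seems capped at control level; exposure time not given.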 The numbers tell different reagents against one gene apart. Further read-outs or replicates are left out here. The record does not give: the amount of reagent, the time to read-out.

For CDK16 (cyclin dependent kinase 16), what was measured?
viability z-score, knock-down alone: 0.464; viability vs control, knock-down alone (fraction of control): 1; outcome: inactive

With CHKA (choline kinase alpha), what does the deposit list?
viability z-score, knock-down alone: -2.69; viability vs control, knock-down alone (fraction of control): 0.881; outcome: inactive

With CDK5R1 (cyclin dependent kinase 5 regulatory subunit 1), what does the deposit list?
viability z-score, knock-down alone: -0.941; viability vs control, knock-down alone (fraction of control): 0.947; outcome: inactive

What did the screen give for AKT2 (AKT serine/threonine kinase 2)?
viability z-score, knock-down alone: 0.464; viability vs control, knock-down alone (fraction of control): 1; outcome: inactive

What did the screen give for MAP2K1 (mitogen-activated protein kinase kinase 1)?
viability z-score, knock-down alone: 0.445; viability vs control, knock-down alone (fraction of control): 0.999; outcome: inactive

For WT1 (WT1 transcription factor), what does the deposit list?
viability z-score, knock-down alone: -1.09; viability vs control, knock-down alone (fraction of control): 0.941; outcome: inactive

Already shown: entries from further up.
CHKA (choline kinase alpha) — viability z-score, knock-down alone = -2.69; viability vs control, knock-down alone (fraction of control) = 0.881; outcome = inactive
CDK5R1 (cyclin dependent kinase 5 regulatory subunit 1) — viability z-score, knock-down alone = -0.941; viability vs control, knock-down alone (fraction of control) = 0.947; outcome = inactive

The list goes on.
For DCLK2 (doublecortin like kinase 2), what was measured?
viability z-score, knock-down alone: 0.464; viability vs control, knock-down alone (fraction of control): 1; outcome: inactive

With ERBB2 (erb-b2 receptor tyrosine kinase 2), what does the deposit list?
viability z-score, knock-down alone: 0.464; viability vs control, knock-down alone (fraction of control): 1; outcome: inactive

With PMVK (phosphomevalonate kinase), what does the deposit list?
viability z-score, knock-down alone: 0.464; viability vs control, knock-down alone (fraction of control): 1; outcome: inactive

For ILK (integrin linked kinase) #1, how do the results read?
viability z-score, knock-down alone: 0.464; viability vs control, knock-down alone (fraction of control): 1; outcome: inactive

What is on record for ILK (integrin linked kinase) #2?
viability z-score, knock-down alone: -0.678; viability vs control, knock-down alone (fraction of control): 0.957; outcome: inactive

Which result is listed for IPPK (inositol-pentakisphosphate 2-kinase)?
viability z-score, knock-down alone: 0.464; viability vs control, knock-down alone (fraction of control): 1; outcome: inactive

For ALPK3 (alpha kinase 3), how do the results read?
viability z-score, knock-down alone: 0.295; viability vs control, knock-down alone (fraction of control): 0.994; outcome: inactive

What is on record for GUK1 (guanylate kinase 1)?
viability z-score, knock-down alone: -0.729; viability vs control, knock-down alone (fraction of control): 0.955; outcome: inactive

How did the screen score CLK3 (CDC like kinase 3)?
viability z-score, knock-down alone: 0.464; viability vs control, knock-down alone (fraction of control): 1; outcome: inactive

With STK10 (serine/threonine kinase 10), what does the deposit list?
viability z-score, knock-down alone: 0.464; viability vs control, knock-down alone (fraction of control): 1; outcome: inactive

What is on record for PRP4K (pre-mRNA processing factor kinase PRP4K)?
viability z-score, knock-down alone: 0.179; viability vs control, knock-down alone (fraction of control): 0.989; outcome: inactive

With PIKFYVE (phosphoinositide kinase, FYVE-type zinc finger containing), what was measured?
viability z-score, knock-down alone: 0.464; viability vs control, knock-down alone (fraction of control): 1; outcome: inactive

For DLG1 (discs large MAGUK scaffold protein 1), what was measured?
viability z-score, knock-down alone: 0.464; viability vs control, knock-down alone (fraction of control): 1; outcome: inactive
